Hit rate of the full screen: of about 330,000 compounds, about 7,700 (2.3%) were called active. Inconclusive means that the source gave no clear call. Such entries were picked first, then a sample of the others. Calls come from the whole dose curve; as a rule, active = well fitted inhibition curve with a large enough effect; inconclusive = small, poorly fitted or top-dose-only effect, or effect the other way; inactive = flat fitted curve, though single readings scatter. Potencies beside an inconclusive call are fits to weak or partial responses and may not hold up.
Assay: qHTS screen for small molecules that inhibit ELG1-dependent DNA repair in human embryonic kidney (HEK293T) cells expressing luciferase-tagged ELG1; note: nearly all actives have a fitted effect of over 55% in size
Settings: HEK293T ELG1-luciferase reporter, luminescence, 16 h, DNA damage induced by 5-fluorouridine; series mostly up to 46.1 µM
Summary of the method: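 Overnight (16 hr) co-exposure of 2,000 cells/well to 5-fluorouridine and compound at 37 °C preceded detection. Luciferase was quantified via ONE-Glo luminescence; loss of signal denotes inhibition.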
Potency is the fitted concentration of half-maximal effect.

Structure (SMILES) | Potency
COc1ccc(N2CCN(C(=O)c3c(C)nn(-c4ccccc4)c3C)CC2)cc1 | inconclusive: 20.6 µM [inhibitor, partial curve]
Cc1oc(C(C)(C)C)cc1C(=O)Nc1cccc(/C=C\C(=O)O)c1 | inconclusive: 16.4 µM [activator, single point]
Cn1c(Cc2ccccc2)nnc1SCc1cc(=O)n2ccsc2n1 | inconclusive: 0.651 µM [activator, full curve, poor fit]
COc1ccc(Nc2ccc(S(=O)(=O)N3CCCCC3)cc2[N+](=O)[O-])cc1Cl | inactive
CCN(CC)C(=O)C1CCCN(c2ncnc3c2cnn3-c2ccc(Cl)cc2)C1 (stereo unspecified) | inconclusive: 20.6 µM [inhibitor, single point]
O=S(=O)(c1ccccc1)N1CCN(S(=O)(=O)c2ccccc2)C1 | inactive
COc1ccc(-c2nnc(SCCc3ccccc3)n2N)cc1 | inconclusive: 18.4 µM [activator, partial curve, poor fit]
Cc1cc(Nc2ncc(Cl)cc2Cl)n[nH]1 | inconclusive: 29.1 µM [activator, partial curve, poor fit]
CCOc1cccc2sc(NC(=O)CCS(=O)(=O)c3ccccc3)nc12 | inconclusive: 29.1 µM [inhibitor, single point]
Cc1ccc(S(=O)(=O)N2CCCCC2CCNC(=O)C(=O)NCc2ccncc2)cc1 (stereo unspecified) | inconclusive: 29.1 µM [inhibitor, single point]
O=c1c(-c2c(O)cc(O)c3c2O[C@H](c2ccc(O)cc2)CC3)c(-c2ccc(O)cc2)oc2cc(O)cc(O)c12 | inactive
CCC(Sc1nc2ccncc2[nH]1)C(=O)Nc1ccc(C)c(Cl)c1 (stereo unspecified) | inactive
CN(C)S(=O)(=O)c1cccc(NC(=S)Nc2ccc(Cl)cc2Cl)c1 | inconclusive: 0.146 µM [activator, full curve]
O=S(=O)(c1ccc(Cl)cc1)n1ccc2cccnc21 | inconclusive: 32.6 µM [inhibitor, partial curve, poor fit]
CCc1nnc(NC(=O)CSc2nccn2-c2cc(C)cc(C)c2)s1 | inconclusive: 29.1 µM [inhibitor, single point]
COC(=O)c1sc(C(C)(C)C)cc1CS(=O)(=O)c1ccc(Cl)cc1 | inconclusive: 29.1 µM [inhibitor, single point]
Cc1cc(C)n(CCc2nc(-c3cc4ccccc4o3)cs2)n1 | inconclusive: 29.1 µM [inhibitor, single point]
O=[N+]([O-])c1ccc(O)c(/C=N/Nc2nn[nH]n2)c1 | inactive
O=C(NNC(=S)Nc1ccccc1)C1CC1 | inactive
COc1ccccc1Oc1ccc(NC(=O)c2ccccc2C)cc1 | inconclusive: 32.6 µM [inhibitor, partial curve, poor fit]
Cc1ccccc1OCC(=O)N1N=C(C(F)(F)F)CC1(O)C(C)(C)C (stereo unspecified) | inconclusive: 29.1 µM [inhibitor, single point]
N#C/C(=C\c1cccnc1)C(=O)Nc1cccc2ccccc12 | inconclusive: 25.9 µM [activator, single point]
c1ccc(CN2CCN(c3nc(-c4ccccn4)nc4ccccc34)CC2)cc1 | active: 8.2 µM

Three entries from above, with each value named.
CCN(CC)C(=O)C1CCCN(c2ncnc3c2cnn3-c2ccc(Cl)cc2)C1 (stereo unspecified)
  Potency: inconclusive: 20.6 µM [inhibitor, single point]
O=S(=O)(c1ccccc1)N1CCN(S(=O)(=O)c2ccccc2)C1
  Potency: inactive
COc1ccc(-c2nnc(SCCc3ccccc3)n2N)cc1
  Potency: inconclusive: 18.4 µM [activator, partial curve, poor fit]

Following part.

Structure (SMILES) | Potency
Cc1ccc(C(=O)NCCc2nnc3ccc(NCc4ccc5c(c4)OCO5)nn23)cc1 | inactive
O=C(CCO)c1ccc(O)cc1 | inactive
CCNC(=O)NC(=O)CSc1nc2ccccc2n1CC(C)C | inactive
Cn1c(=O)c2c(nc(Sc3ncnn3CC(=O)N3CCOCC3)n2C)n(C)c1=O | inactive
CC(C)(C)C(=O)/C=C(\N)c1ccccn1 | inconclusive: 20.6 µM [activator, partial curve, poor fit]
NC(=O)/C(=C\c1ccccc1)NC(=O)/C=C/c1ccccc1 | inconclusive: 29.1 µM [activator, single point]
CCOC(=O)Nc1ccc2c(CN3CCN(S(=O)(=O)c4ccccc4F)CC3)cc(=O)oc2c1 | active: 6.51 µM
Cc1cc(C)cc(C(=O)Oc2cc(C)[nH]c(=O)c2[N+](=O)[O-])c1 | inactive
COCc1ccc([C@@H]2C[C@H]3CN(Cc4ccccc4C)C(=O)[C@]34CCCN24)o1 | inactive
CCN(CC)S(=O)(=O)c1ccc(C)c(NC(=S)NC2CCCCC2)c1 | inconclusive: 20.6 µM [inhibitor, partial curve]
CC1(C)Cc2c(sc3c2c(=N)n(Cc2ccco2)c(=O)n3CC(=O)Nc2ccc(Cl)cc2)CO1 | active: 20.6 µM
Cc1ccc(NS(=O)(=O)c2ccccc2Cl)c2c1CC(C)(C)O2 | inactive
O=[N+]([O-])c1ccc(Sc2nnnn2-c2ccccc2)nc1 | inconclusive: 23.1 µM [activator, partial curve]
C[C@]12C(=O)N(c3cccc(F)c3)C(=O)N1[C@H]1c3ccccc3OC[C@@H]1[C@H]2c1ccccc1 | inactive
CCCCC(CC)CN1C(=O)/C(=C/c2ccncc2)SC1=S (stereo unspecified) | inconclusive: 0.82 µM [activator, partial curve, poor fit]
Cc1ccc(/C=N/N2CCN(Cc3ccccc3)CC2)o1 | inconclusive: 23.1 µM [activator, partial curve, poor fit]
Cc1nn(C)c(C(=O)NNC(=S)NC2CCCCC2)c1Br | inconclusive: 20.6 µM [activator, single point]
CC(=O)c1ccc(N2CCN(C(=S)Nc3ccccc3C(F)(F)F)CC2)cc1 | inconclusive: 29.1 µM [inhibitor, single point]
O=C(COC(=O)c1ccccc1)Nc1ccc2[nH]c(=O)[nH]c2c1 | inactive
Cc1ccc(N(CC(=O)NCc2ccc(Cl)cc2)S(C)(=O)=O)cc1 | inactive
CCCOc1ccc(C(=O)Nc2ccc(C)cc2[N+](=O)[O-])cc1 | inconclusive: 9.2 µM [activator, partial curve]
COc1cccc(C2C(C#N)=C(N)Oc3cc(N)ccc32)c1OC (stereo unspecified) | inactive
O=C(Nc1nc(-c2ccc(F)c(F)c2)cs1)c1ccc(OCC2CCCO2)cc1 (stereo unspecified) | inconclusive: 1.46 µM [inhibitor, full curve, poor fit]

From PubChem BioAssay AID504467 (National Center for Advancing Translational Sciences (NCATS), 2011)
